This note sets out measurements from PubChem BioAssay AID493014 (National Center for Advancing Translational Sciences (NCATS), 2011).

Each structure is given as a SMILES string. The list shows a part of the results. Further columns of the screen follow, without active or inactive calls. Most of these compounds were active or inconclusive in the main read-out, so they are no random draw. Potencies come from curve fits of mixed quality, noted in brackets.

This assay is described as follows: qHTS Assay to Find Inhibitors of Chronic Active B-Cell Receptor Signaling. Particulars: ABC-DLBCL IkBa-CBG/CBR reporter, luminescence ratio (green luciferase fused to IkBa over red control in TMD8 lymphoma cells), 4 h. A digest of the protocol:
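Concentration-response series (up to 46 uM) were applied to TMD8 dual-reporter cells for 4 h at 37C with doxycycline. Green/red ratio, after filter-overlap correction, defined %Activity; red signal alone was normalised to basal cells and zero luminescence.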
In general terms: qHTS replaces the single test concentration by a dilution series.

Where [1] appears, read: measured here: CBR red luminescence, cell number.

For the compound `Cc1cccc(Nc2nc(-c3ccccc3)cs2)n1`, the half-maximal activity concentration (AC50) under setting [1] was 0.282 µM [falling, full curve, poor fit].
Same read-out and setting: the value for `CN(C(=O)COC(=O)CNC(=O)CNC(=O)c1ccc(Cl)cc1Cl)c1ccccc1` was 12.6 µM [rising, partial curve, poor fit]; that for `COc1ccc2c(=O)cc(-c3ccccc3F)oc2c1` was 1.41 µM [falling, full curve, poor fit].
Regarding `COc1ccc(OC)c(NC(=O)C2CC2c2ccccc2)c1` (stereo not drawn), the AC50 under setting [1] is 15.8 µM [rising, single point].
Same read-out and setting: then `COc1cccc(CNC(=O)CCC2CCCN(C(=O)c3cc4ccccc4o3)C2)c1` (stereo not drawn), with 35.5 µM [falling, single point]; and `O=C(c1cc2cc([N+](=O)[O-])ccc2s1)N1CCCCC1`, with 3.16 µM [rising, single point]; and `O=C(Cn1c(=O)oc2cc(S(=O)(=O)NCc3ccccc3)ccc21)N(CCO)Cc1ccccc1`, with 35.5 µM [falling, single point].
On to `Cc1cc2c(=O)n(CC(=O)N3CCN(c4ccccc4)CC3)cnc2s1`, for which, under setting [1], the AC50 was 0.731 µM [falling, partial curve, poor fit].
On the same count and under the same terms, then `C[N+]1(CC(=O)OC2CCCCCCCCCCC2)CCCC1`, with 0.1 µM [falling, full curve, poor fit]; and `O=C(Nn1c(SCc2ccc([N+](=O)[O-])cc2)nc2ccccc2c1=O)c1ccc(F)cc1`, with 9.2 µM [falling, partial curve, poor fit].
On the same count and under the same terms, then `C=C(C)C(O)COc1c2occc2c(OC)c2ccc(=O)oc12` (stereo not drawn), with 0.092 µM [rising, full curve, poor fit].
Same read-out and setting: then `C/C(=N\Nc1nc(-c2ccccc2)cs1)c1cccs1`, with 0.058 µM [falling, full curve].
Regarding `O=S1(=O)CCOC[C@H](CC2CCCCC2)N1Cc1cccc(Cl)c1`, the AC50 under setting [1] is 14.1 µM [falling, partial curve].
Still for that read-out and setting: then `CCC1=C(OC(=O)N(CC)CC)N2C(=O)OC(=NCC3CC3)[C@]2(C)[C@H]2C1=CC[C@H]1C(=O)N(C)C(=O)[C@H]12`, with 0.891 µM [rising, full curve]; and `COc1ccccc1NC(=O)N1CCc2c([nH]c3ccccc23)C1C(F)(F)F` (stereo not drawn), with 4.47 µM [falling, partial curve]; and `O=C(Cn1cc(C(F)(F)F)ccc1=O)Nc1ccccc1`, with 35.5 µM [falling, single point].
Still for that read-out and setting: the value for `O=C(Cc1cccs1)N1CCN(C(=O)C2CCCO2)CC1` (stereo not drawn) was 23.1 µM [rising, single point]; that for `CC1=C(Nc2ccc(C(=O)O)cc2)C(=O)c2ccccc2C1=O` was 7.94 µM [falling, partial curve, poor fit]; that for `CCc1ccc(NC2=NC(C(=O)NC3CCCCC3)CC(=O)N2)cc1` (stereo not drawn) was 29.1 µM [rising, single point].
On the same count and under the same terms, the value for `O=C(CN1CCN(S(=O)(=O)c2ccc(F)cc2)CC1)Nc1ccccc1C(=O)NC1CC1` was 0.291 µM [rising, full curve, poor fit].
In the case of `CS/C(N)=N/N=C/c1cc(C)ccc1O`, the half-maximal activity concentration (AC50) is, setting by setting: under setting [1], 11.2 µM [falling, partial curve]; (measured here: IkBa-CBG green luminescence) 35.5 µM [falling, single point].
Regarding `NC(=O)C1(c2ccccc2)CCC(=O)N1c1ccccc1` (stereo not drawn), the half-maximal activity concentration (AC50) under setting [1] is 5.01 µM [rising, single point].
Same read-out and setting: the value for `O=C(c1ncc[nH]1)c1ccccc1Cl` was 35.5 µM [rising, single point].
Consider `CCCOc1ccc2c3c(c(=O)oc2c1)CCCC3`, for which, under setting [1], the AC50 is 29.1 µM [rising, single point].
On the same count and under the same terms, the value for `CC(C)COc1ccc2[nH]c3c(c2c1)CCCC3=O` was 4.11 µM [rising, partial curve]; that for `COc1cccc(C(=O)Nc2ccc(F)c(F)c2F)c1` was 10 µM [falling, partial curve]; that for `COC(=O)CC(c1ccc(F)cc1)n1c(C)ccc1C` (stereo not drawn) was 12.6 µM [falling, single point].
Take `Fc1ccc(OCc2nnc(SCCN3CCOCC3)o2)cc1`: the half-maximal activity concentration (AC50) under setting [1] is 4.11 µM [rising, full curve].
On the same count and under the same terms, the value for `O=C(N/N=C/c1c(O)ccc2ccccc12)c1cccc(C(F)(F)F)c1` was 23.1 µM [falling, partial curve, poor fit]; that for `Cc1ccccc1C(=O)Nc1ccc(Cl)cn1` was 7.94 µM [falling, partial curve, poor fit]; that for `O=C(COc1ccccc1Cl)Nc1ccc(N2CCN(C(=O)c3ccccc3)CC2)cc1` was 14.1 µM [falling, single point].
On the same count and under the same terms, the value for `Cc1ccc(CNC(=O)Cn2c([N+](=O)[O-])cnc2C)cc1` was 23.1 µM [rising, single point]; that for `Cc1ccc(/C=[N+](/[O-])C2SC(=S)N(C)C2(C)C)cc1` (stereo not drawn) was 29.1 µM [rising, single point].
Same read-out and setting: then `COc1cccc(C(=O)NCC(C)(C)SCc2ccc(F)cc2)c1`, with 35.5 µM [falling, single point]; and `Cc1ccc(OCCCCc2c(C)n[nH]c2C)cc1`, with 7.94 µM [rising, partial curve].
In the case of `COC(=O)c1cccc(NC(=O)Nc2ccc(Cl)cc2)c1`, the half-maximal activity concentration (AC50) under setting [1] was 35.5 µM [falling, single point].
Consider `COc1cccc(NC(=O)CC2(CC(=O)O)CCCC2)c1`, for which the AC50 under setting [1] was 20.6 µM [rising, single point].
On the same count and under the same terms, the value for `c1ccc(-c2nc(CSc3n[nH]c(-c4cccs4)n3)cs2)cc1` was 5.01 µM [falling, partial curve, poor fit].
Same read-out and setting: the value for `CC(=O)Nc1cccc(C(=O)N/N=C/c2c[nH]c3ccccc23)c1` was 22.4 µM [falling, partial curve, poor fit]; that for `CCOc1cc(/C=C2\COc3ccccc3C2=O)ccc1OCC(=O)N(C)C` was 2.51 µM [falling, full curve].
Same read-out and setting: then `COc1ccc(CN2CCN(S(=O)(=O)c3ccccc3)CC2)c(OC)c1`, with 3.26 µM [rising, single point]; and `O=C(Nc1ccc(-c2csc(Nc3ccc(Cl)cc3)n2)cc1)c1ccccc1`, with 10.3 µM [falling, partial curve]; and `Cc1ccc(CSc2nnc3[nH]c(=O)cc(C)n23)cc1`, with 1.41 µM [rising, full curve, poor fit].
Take `CCc1cc(C(=O)N2CCCC(CCC(=O)N3CCN(c4ccccn4)CC3)C2)no1` (stereo not drawn): under setting [1], the AC50 was 10 µM [rising, partial curve, poor fit].
On the same count and under the same terms, then `O=C(Nc1nnc(-c2ccc(F)cc2)s1)c1c(F)cccc1Cl`, with 2.82 µM [falling, full curve, poor fit]; and `COc1cc2cc(CN(CCO)C(=O)c3cccs3)c(=O)[nH]c2cc1OC`, with 29.1 µM [rising, single point].
As for `C=C(C)C(=O)O[C@H]1C/C(C)=C\C(=O)/C=C(\C)[C@H](O)[C@@H]2OC(=O)C(=C)[C@@H]21`, under setting [1], the concentration at half-maximal activity (AC50) was 7.08 µM [falling, full curve].
Same read-out and setting: then `CC(C)(C)c1ccc(COC(=O)Nc2ccc(F)cc2)cc1`, with 29.1 µM [falling, single point]; and `Oc1c(Br)cc(C=Nc2ccc3nc(-c4ccccc4)[nH]c3c2)c(O)c1Br`, with 22.4 µM [falling, partial curve, poor fit].
The same measure, in the same setting: then `Cc1ccc(C(=O)NC2(O)C(=O)c3ccccc3C2=O)cc1C`, with 25.1 µM [rising, single point].
On the same count and under the same terms, the value for `Nc1nnnn1/N=C/c1ccccn1` was 0.461 µM [falling, full curve, poor fit].
Take `Cn1nc(C(=O)Nc2ccc(-n3cnnn3)cc2)c2ccccc2c1=O`: under setting [1], the AC50 is 5.8 µM [rising, partial curve, poor fit].
Still for that read-out and setting: then `Cc1ccc(CNC(=O)C2CCCN(Cc3cnn(-c4ccccc4)c3-n3cccc3)C2)cc1` (stereo not drawn), with 3.98 µM [rising, partial curve, poor fit]; and `CC(=O)c1ccc(OCCCC(=O)NNC(=O)c2ccccn2)cc1`, with 25.9 µM [rising, single point].
Still for that read-out and setting: then `O=C(Nc1cccc(-c2cn3c(n2)SCC3)c1)c1ccc2c(c1)OCO2`, with 10 µM [falling, partial curve].
On the same count and under the same terms, then `Nc1cc(=O)[nH]c(SCCSc2ccccc2F)n1`, with 5.62 µM [rising, single point].
Turning to `C/C(CC(=O)Nc1ccc(N(C)C)cc1)=N\NC(=O)c1ccccc1F`, the half-maximal activity concentration (AC50) under setting [1] was 15.8 µM [falling, partial curve, poor fit].
The same measure, in the same setting: the value for `O=C(Cn1ncn2c(cc3ccccc32)c1=O)NCCCc1ccccc1` was 1 µM [rising, full curve, poor fit].
`O=C(CSc1nc2ccccc2o1)NCC1CCCO1` (stereo not drawn): the AC50 under setting [1] was 3.26 µM [rising, full curve, poor fit].
Still for that read-out and setting: then `CC1CCN(C2=NC(=O)/C(=C/c3cn[nH]c3-c3ccccc3)S2)CC1`, with 2.91 µM [falling, full curve].
On the same count and under the same terms, then `Cc1ccc(NC(=O)C(=O)NN=C2CCCC2)cc1C`, with 11.2 µM [falling, single point]; and `COc1ccc2c(c1)CC/C2=N\OC(=O)c1ccccc1OC`, with 35.5 µM [falling, single point]; and `Cc1ccccc1OCC(=O)Nc1ccc(Cc2ccncc2)cc1`, with 20.6 µM [falling, partial curve].
Same read-out and setting: the value for `O=C(O)COc1ccccc1/C=C1\SC(=S)N(c2cccnc2)C1=O` was 3.98 µM [falling, full curve, poor fit]; that for `O=C(NNC(=O)c1cc2ccccc2o1)c1ccc(F)cc1` was 18.4 µM [falling, partial curve]; that for `O=C(/C=C/Nc1ccccc1C(F)(F)F)c1ccco1` was 4.47 µM [rising, single point].
Turning to `CCn1c(SCC(=O)NCc2ccco2)nc2c(c1=O)SC(C)C2` (stereo not drawn), under setting [1], the half-maximal activity concentration (AC50) is 32.6 µM [falling, single point].

For orientation: AC50 means the concentration at which the activity in the assay is half-maximal.
